We go through five molecules from patent US20260053773A1, “PHARMACEUTICAL COMPOSITION AND USE THEREOF” (AUHUI TONGOO PHARMACEUTICAL TECHNOLOGY CO., LTD., priority 2022, published 2026).

Some compounds share one wording; it may come from a single statement.

This data set in a line: Inhibition of COM crystal growth in three growth directions, inhibitors alone and in combination pairs. On the procedure: Different concentrations of citric acid (CA) and ellagic acid (EA) were added to 25 ml of deionized water, the supersaturation of the solution was controlled at S=2.4, and the growth process of the crystal was monitored.
The hollow symbols in the figure represent the concentration required for a single inhibitor to achieve a certain effect, and the same solid symbols represent the concentration required for a combination of the inhibitors to achieve the same effect.
Different concentrations of citric acid (CA) and gallic acid (GaA) were added to 25 ml of deionized water, and the growth process of the crystal was monitored.
Different concentrations of citric acid (CA) and pyrogallol (PGA) were added to 25 ml of deionized water, and the growth process of the crystal was monitored.
Different concentrations of citric acid (CA) and protocatechuic acid (PrA) were added to 25 ml of deionized water, and the growth process of the crystal was monitored.
Comparative Example 1 differed from Example 1 merely in that ellagic acid was replaced with albumin, and the other preparation methods were the same as those in Example 1.
Comparative Example 2 differed from Example 1 merely in that ellagic acid was replaced with o-hydroxybenzoic acid, and the other preparation methods were the same as those in Example 1.
Different concentrations of hydroxycitric acid (HCA) and ellagic acid (EA) were added to 25 ml of deionized water, supersaturation of the solution was controlled at S=2.4, and the growth process of the crystal was monitored.
Different concentrations of hydroxycitric acid (HCA) and gallic acid (GaA) were added to 25 ml of deionized water, and the growth process of the crystal was monitored.
Different concentrations of potassium citrate (KCA) and ellagic acid (EA) were added to 25 ml of deionized water, the supersaturation of the solution was controlled at S=2.4, and the growth process of the crystal was monitored.
Different concentrations of potassium citrate (KCA) and gallic acid (GaA) were added to 25 ml of deionized water, and the growth process of the crystal was monitored.
With `O=C(O)CC(O)(CC(=O)O)C(=O)O` [CA, citric acid], the “mechanism in inhibiting the growth of COM crystals” value (“mechanism in inhibiting the growth” below) was “combination mechanism of step pinning and kink blocking”.

Turning to `O=c1oc2c(O)c(O)cc3c(=O)oc4c(O)c(O)cc1c4c23` [EA, ellagic acid], the “mechanism in inhibiting the growth” value is “combination mechanism of step pinning and kink blocking”.

Consider `O=C(O)c1cc(O)c(O)c(O)c1` [GaA, gallic acid], for which the “mechanism in inhibiting the growth” value is given as “only step pinning”.

For `Oc1cccc(O)c1O` [PGA, pyrogallol], the “mechanism in inhibiting the growth” value was “combination mechanism of step pinning and kink blocking”.

As for `O=C(O)c1ccc(O)c(O)c1` [PrA, protocatechuic acid], the “mechanism in inhibiting the growth” value is reported as “kink blocking”.
